Assay [1] concerns the target CSQ1DA1 (rabbit CSQ1 with one C-terminal acidic residue changed to alanine) (rabbit) (UniProt P07221). The assay can be described thus: co-IP; purified CSQ1 construct coupled to anti-CSQ1/protein A/G agarose (Pierce kit), then exposed to purified trisk95 or junctin; 20 mM MOPS, 150 mM NaCl, 1 mM CaCl2, pH 7.4; CSQ1 to partner 2:1 by weight; Western blot; both purified. On the technique in general: In western blotting, separated proteins are transferred to a membrane and probed.

Sequences of proteins named here, by UniProt entry; tags and fusion partners are left off. A change or cut given only in a name is not applied to a line headed by its entry.
UniProt P07221: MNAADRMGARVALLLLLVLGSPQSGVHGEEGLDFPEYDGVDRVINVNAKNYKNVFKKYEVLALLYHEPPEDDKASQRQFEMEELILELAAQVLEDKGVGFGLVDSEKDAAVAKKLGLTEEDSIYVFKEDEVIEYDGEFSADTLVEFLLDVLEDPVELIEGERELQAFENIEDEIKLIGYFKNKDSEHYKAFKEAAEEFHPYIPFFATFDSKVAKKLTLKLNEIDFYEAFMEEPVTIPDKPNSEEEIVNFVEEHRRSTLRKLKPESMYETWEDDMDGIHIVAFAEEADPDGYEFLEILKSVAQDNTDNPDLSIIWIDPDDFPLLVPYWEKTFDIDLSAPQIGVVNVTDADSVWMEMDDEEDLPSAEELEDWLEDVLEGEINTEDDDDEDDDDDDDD

In assay [2] the target is CSQ1DA2 (rabbit CSQ1 with two alternate C-terminal acidic residues changed to alanine) (rabbit) (UniProt P07221). The assay is described as above.

These are yes or no findings as the source states them, for the method shown. In cells and extracts the contact can be indirect. A result given as binding can be weak or reduced; the word gives no strength.

B1: skeletal triadin 95 kDa (trisk95) (protein, UniProt Q28820 1-706)
chain: MTEITAEGNASTTTTVIDSKNGSVPKSPGKVLKRTVTEDLVTTFSSPAAWLLVIALIITWSAVAVVMFDLVDYKNFSASSIAKMGSDPLKLVHDAVEETTDWIYGFFSLLSDIISSDGDEEDDEGDEDTAKGEIEEPPLKRKDIHKEKIEKQEKPERKIPTKVVHKEKEKEKEKVKEKEKPEKKATHKEKLEKKEKPETKTVTKEEKKARTKEKIEEKTKKEVKGVKQEKVKQTVAKAKEVQKTPKPKEKESKETAAVSKQEQKDQYAFCRYMIDIFVHGDLKPGQSPAIPPPSPTEQASRPTPALPTPEEKEGEKKKAEKKVTTETKKKAEKEDAKKKSEKETDIDMKKKEPGKSPDTKPGTVKVTTQAATKKDEKKEDSKKAKKPAEEQPKGKKQEKKEKHEEPAKSTKKEHAAPSEKQAKAKIERKEEVSAASTKKAVPAKKEEKTTKTVEQETRKEKPGKISSVLKDKELTKEKEVKVPASLKEKGSETKKDEKTSKPEPQIKKEEKPGKEVKPKPPQPQIKKEEKPEQDIMKPEKTALHGKPEEKVLKQVKAVTTEKHVKPKPAKKAEHQEKEPPSIKTDKPKSTSKGMPEVTESGKKKIEKSEKEIKVPARRESHQLQNVTKAEKPARGSKEGFEDVPASKKAKEEAEEVSSTKKQKSPISFFQCVYLDGYNGYGFQFPVTPAQYPGESSGKPNSPGPKQ
In the case of B1, the binding entry in assay [1] and in assay [2] was “binds” throughout.
